Three molecules from article PMC12455970 can be followed below.

Chains of the proteins cited; added tags and fusions are not shown.
UniProt P10192: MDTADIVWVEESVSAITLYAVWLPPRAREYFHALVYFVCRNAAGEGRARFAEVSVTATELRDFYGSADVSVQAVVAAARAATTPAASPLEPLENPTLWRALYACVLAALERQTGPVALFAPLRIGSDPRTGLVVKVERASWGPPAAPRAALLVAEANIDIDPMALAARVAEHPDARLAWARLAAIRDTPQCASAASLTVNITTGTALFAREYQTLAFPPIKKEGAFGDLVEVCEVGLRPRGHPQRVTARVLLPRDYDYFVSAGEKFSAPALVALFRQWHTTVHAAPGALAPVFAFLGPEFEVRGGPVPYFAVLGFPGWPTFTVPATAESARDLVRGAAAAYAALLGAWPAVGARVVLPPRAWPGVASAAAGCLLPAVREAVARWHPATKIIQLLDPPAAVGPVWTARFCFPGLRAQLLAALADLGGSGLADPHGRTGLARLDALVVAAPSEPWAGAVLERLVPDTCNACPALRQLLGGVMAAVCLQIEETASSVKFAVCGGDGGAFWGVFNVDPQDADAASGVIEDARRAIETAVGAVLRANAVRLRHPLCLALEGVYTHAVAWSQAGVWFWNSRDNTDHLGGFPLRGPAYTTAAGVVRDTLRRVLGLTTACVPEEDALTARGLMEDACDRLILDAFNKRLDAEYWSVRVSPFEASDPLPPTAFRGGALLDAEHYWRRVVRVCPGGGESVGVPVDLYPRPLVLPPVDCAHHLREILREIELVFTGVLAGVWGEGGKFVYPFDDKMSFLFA
UniProt O60934: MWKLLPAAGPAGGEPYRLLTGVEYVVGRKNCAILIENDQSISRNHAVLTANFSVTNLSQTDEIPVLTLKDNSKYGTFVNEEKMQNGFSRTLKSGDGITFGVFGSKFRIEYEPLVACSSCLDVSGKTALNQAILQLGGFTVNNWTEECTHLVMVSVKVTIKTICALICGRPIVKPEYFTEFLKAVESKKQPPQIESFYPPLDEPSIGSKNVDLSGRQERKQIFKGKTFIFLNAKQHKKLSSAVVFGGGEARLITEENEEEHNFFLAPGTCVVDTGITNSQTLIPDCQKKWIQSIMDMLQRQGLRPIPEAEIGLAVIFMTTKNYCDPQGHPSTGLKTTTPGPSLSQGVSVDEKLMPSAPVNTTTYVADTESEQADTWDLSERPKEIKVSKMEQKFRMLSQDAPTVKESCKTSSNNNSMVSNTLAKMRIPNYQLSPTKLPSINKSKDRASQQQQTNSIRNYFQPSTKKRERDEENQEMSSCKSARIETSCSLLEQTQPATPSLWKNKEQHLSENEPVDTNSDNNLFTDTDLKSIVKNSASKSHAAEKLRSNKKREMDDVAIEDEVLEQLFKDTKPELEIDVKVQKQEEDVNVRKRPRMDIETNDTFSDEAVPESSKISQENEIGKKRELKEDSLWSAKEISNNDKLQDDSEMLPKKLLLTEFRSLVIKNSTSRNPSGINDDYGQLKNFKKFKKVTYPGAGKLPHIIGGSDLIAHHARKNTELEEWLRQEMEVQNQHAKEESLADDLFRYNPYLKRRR
UniProt Q92878: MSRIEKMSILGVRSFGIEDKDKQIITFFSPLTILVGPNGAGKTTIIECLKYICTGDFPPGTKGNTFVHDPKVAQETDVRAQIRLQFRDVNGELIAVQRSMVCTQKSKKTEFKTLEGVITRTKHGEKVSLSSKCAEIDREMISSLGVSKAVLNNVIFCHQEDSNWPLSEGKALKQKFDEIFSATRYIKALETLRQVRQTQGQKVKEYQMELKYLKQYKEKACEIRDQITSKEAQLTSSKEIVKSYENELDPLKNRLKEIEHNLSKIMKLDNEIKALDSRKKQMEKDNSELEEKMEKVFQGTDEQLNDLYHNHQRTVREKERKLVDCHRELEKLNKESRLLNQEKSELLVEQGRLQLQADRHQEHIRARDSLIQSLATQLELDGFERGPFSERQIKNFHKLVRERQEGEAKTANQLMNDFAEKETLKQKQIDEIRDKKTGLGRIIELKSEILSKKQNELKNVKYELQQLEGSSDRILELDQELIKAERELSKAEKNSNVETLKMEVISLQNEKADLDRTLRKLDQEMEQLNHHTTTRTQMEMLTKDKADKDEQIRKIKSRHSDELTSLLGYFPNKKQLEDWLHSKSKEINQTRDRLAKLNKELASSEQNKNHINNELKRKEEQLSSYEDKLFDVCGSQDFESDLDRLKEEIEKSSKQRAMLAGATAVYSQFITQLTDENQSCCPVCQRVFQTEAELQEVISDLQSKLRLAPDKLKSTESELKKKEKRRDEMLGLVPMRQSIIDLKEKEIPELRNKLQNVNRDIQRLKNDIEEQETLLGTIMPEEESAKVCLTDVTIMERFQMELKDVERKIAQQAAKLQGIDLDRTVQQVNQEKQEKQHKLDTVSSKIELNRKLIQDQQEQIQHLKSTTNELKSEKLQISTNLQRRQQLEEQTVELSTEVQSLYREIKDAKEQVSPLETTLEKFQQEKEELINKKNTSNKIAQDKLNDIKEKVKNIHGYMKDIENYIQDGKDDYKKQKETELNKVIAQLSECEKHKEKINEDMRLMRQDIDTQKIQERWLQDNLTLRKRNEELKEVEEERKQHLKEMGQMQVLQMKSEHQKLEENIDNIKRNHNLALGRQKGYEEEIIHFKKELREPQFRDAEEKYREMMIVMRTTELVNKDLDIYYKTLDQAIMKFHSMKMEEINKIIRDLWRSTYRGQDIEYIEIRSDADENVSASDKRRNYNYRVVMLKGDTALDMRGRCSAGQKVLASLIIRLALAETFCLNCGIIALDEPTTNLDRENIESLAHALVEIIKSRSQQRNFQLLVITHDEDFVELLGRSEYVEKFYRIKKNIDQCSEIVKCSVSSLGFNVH

Results are given in words; binding and its absence hold for the method and conditions named. Binding seen in cells or lysates may run through a third protein. Here binding means that the protein was enriched with, or labelled near, the bait; the list need not be complete. A no says only that the protein was not detected with the bait.

B1: Ubiquitin-specific protease 15 (USP15), endogenous in 293T (enzyme, UniProt Q9Y4E8 1-981)
chain: MAEGGAADLDTQRSDIATLLKTSLRKGDTWYLVDSRWFKQWKKYVGFDSWDKYQMGDQNVYPGPIDNSGLLKDGDAQSLKEHLIDELDYILLPTEGWNKLVSWYTLMEGQEPIARKVVEQGMFVKHCKVEVYLTELKLCENGNMNNVVTRRFSKADTIDTIEKEIRKIFSIPDEKETRLWNKYMSNTFEPLNKPDSTIQDAGLYQGQVLVIEQKNEDGTWPRGPSTPKSPGASNFSTLPKISPSSLSNNYNNMNNRNVKNSNYCLPSYTAYKNYDYSEPGRNNEQPGLCGLSNLGNTCFMNSAIQCLSNTPPLTEYFLNDKYQEELNFDNPLGMRGEIAKSYAELIKQMWSGKFSYVTPRAFKTQVGRFAPQFSGYQQQDCQELLAFLLDGLHEDLNRIRKKPYIQLKDADGRPDKVVAEEAWENHLKRNDSIIVDIFHGLFKSTLVCPECAKISVTFDPFCYLTLPLPMKKERTLEVYLVRMDPLTKPMQYKVVVPKIGNILDLCTALSALSGIPADKMIVTDIYNHRFHRIFAMDENLSSIMERDDIYVFEININRTEDTEHVIIPVCLREKFRHSSYTHHTGSSLFGQPFLMAVPRNNTEDKLYNLLLLRMCRYVKISTETEETEGSLHCCKDQNINGNGPNGIHEEGSPSEMETDEPDDESSQDQELPSENENSQSEDSVGGDNDSENGLCTEDTCKGQLTGHKKRLFTFQFNNLGNTDINYIKDDTRHIRFDDRQLRLDERSFLALDWDPDLKKRYFDENAAEDFEKHESVEYKPPKKPFVKLKDCIELFTTKEKLGAEDPWYCPNCKEHQQATKKLDLWSLPPVLVVHLKRFSYSRYMRDKLDTLVDFPINDLDMSEFLINPNAGPCRYNLIAVSNHYGGMGGGHYTAFAKNKDDGKWYYFDDSSVSTASEDQIVSKAAYVLFYQRQDTFSGTGFFPLDRETKGASAATGIPLESDEDSNDNDNDIENENCMHTN

In this experiment the target is Flag-UL8 (HSV-1) (UniProt P10192). In words: affinity purification with mass spectrometry.
Nbs1 (from UniProt O60934 1-754): the binding result was “no binding”. The same measure for Rad50 (from UniProt Q92878 1-1312): “no binding”; for B1: “no binding”.
